Measured values reported in a melting point compilation (Tetko et al.).

Conditions: a range is the spread between reports

Row | melting point | Compound
1 | 47.9 to 49 °C | O=C(c1ccccc1)c1ccccc1
2 | -7 to -4 °C | CCCCCCCCCO
